We go through three molecules from PMC8143644.

The chains behind the UniProt entries cited, without tags or fusion partners.
UniProt Q9VHS8: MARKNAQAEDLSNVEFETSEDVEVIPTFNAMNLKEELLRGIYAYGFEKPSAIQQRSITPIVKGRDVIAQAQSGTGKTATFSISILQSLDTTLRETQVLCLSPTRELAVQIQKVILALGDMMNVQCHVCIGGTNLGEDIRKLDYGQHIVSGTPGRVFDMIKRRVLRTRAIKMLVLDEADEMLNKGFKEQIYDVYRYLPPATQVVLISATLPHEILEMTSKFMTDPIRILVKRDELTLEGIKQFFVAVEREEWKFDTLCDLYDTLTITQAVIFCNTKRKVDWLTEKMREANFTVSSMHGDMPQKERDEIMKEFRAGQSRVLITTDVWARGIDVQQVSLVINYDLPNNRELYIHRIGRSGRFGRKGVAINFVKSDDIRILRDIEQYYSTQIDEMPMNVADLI

No constants are given. Whether binding was seen depends on the method and setting. Binding seen in cells or lysates may run through a third protein. Some entries that bind do so weakly or less than the wild type. Tags and fused reporters may be left off the sequences shown.

Holding throughout (assay): co-IP; HEK293 cells co-transfected with bait and candidate (GFP-tagged bait with HA- or HA-Flag-tagged candidate, GFP-TRAP beads; or HA-Flag-tagged bait with GFP-tagged candidate, anti-Flag antibody); lysates treated with RNase A/T1; Western blot with anti-HA and anti-GFP
(Immunoblotting shows a protein as a band on a membrane.)

Assay [1] addresses T1, Hrp48 (tagged, expressed in HEK293 cells) (Drosophila melanogaster) (UniProt P48809).
T1 sequence: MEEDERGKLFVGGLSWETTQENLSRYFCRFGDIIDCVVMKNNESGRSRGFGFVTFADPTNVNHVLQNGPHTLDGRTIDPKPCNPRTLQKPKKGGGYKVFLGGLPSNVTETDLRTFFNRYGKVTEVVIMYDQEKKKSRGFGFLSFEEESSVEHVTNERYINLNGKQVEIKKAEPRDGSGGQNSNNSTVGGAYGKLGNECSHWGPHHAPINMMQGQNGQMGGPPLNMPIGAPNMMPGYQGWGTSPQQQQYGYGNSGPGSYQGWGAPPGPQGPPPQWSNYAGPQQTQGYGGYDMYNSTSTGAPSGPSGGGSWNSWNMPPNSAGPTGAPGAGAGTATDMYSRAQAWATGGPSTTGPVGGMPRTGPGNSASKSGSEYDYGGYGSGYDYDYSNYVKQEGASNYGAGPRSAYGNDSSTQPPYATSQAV

Assay [2] concerns the target T2, Stau (tagged, expressed in HEK293 cells) (Drosophila melanogaster) (UniProt P25159).
T2 sequence: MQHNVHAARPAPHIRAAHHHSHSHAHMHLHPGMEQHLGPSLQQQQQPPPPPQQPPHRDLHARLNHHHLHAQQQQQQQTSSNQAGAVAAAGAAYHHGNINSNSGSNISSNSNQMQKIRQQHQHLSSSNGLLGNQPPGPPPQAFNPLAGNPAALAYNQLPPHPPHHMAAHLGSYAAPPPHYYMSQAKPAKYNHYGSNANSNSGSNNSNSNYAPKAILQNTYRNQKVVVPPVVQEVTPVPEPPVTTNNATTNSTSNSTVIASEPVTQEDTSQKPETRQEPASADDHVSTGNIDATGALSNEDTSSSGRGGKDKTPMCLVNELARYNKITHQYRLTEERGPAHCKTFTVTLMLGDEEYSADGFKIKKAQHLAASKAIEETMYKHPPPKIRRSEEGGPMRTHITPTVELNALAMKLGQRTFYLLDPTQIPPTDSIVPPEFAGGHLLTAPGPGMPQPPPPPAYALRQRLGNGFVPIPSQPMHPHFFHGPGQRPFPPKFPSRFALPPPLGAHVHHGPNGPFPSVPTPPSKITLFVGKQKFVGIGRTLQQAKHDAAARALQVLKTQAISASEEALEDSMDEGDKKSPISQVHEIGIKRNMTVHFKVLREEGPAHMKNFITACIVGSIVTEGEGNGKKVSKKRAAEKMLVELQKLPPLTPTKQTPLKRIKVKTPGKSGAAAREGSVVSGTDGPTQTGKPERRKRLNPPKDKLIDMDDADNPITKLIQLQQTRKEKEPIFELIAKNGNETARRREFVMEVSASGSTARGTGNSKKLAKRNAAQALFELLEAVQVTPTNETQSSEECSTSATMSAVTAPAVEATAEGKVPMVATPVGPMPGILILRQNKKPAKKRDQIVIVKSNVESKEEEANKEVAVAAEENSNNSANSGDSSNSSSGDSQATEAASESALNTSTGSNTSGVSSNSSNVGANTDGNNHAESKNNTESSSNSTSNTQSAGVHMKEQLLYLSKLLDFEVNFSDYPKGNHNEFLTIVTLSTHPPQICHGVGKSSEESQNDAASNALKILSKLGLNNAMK

In assay [3] the target is eIF4AIII (tagged, expressed in HEK293 cells) (Drosophila melanogaster) (UniProt Q9VHS8).

B1: BicaudalC (tagged, expressed in HEK293 cells) (protein, UniProt Q24009 1-905)
chain: MLSCASFNKLMYPSAADVAKPPMVGLEVEAGSIGSLSSLHALPSTTSVGSGAPSETQSEISSVDSDWSDIRAIAMKLGVQNPDDLHTERFKVDRQKLEQLIKAESSIEGMNGAEYFFHDIMNTTDTYVSWPCRLKIGAKSKKDPHVRIVGKVDQVQRAKERILSSLDSRGTRVIMKMDVSYTDHSYIIGRGGNNIKRIMDDTHTHIHFPDSNRSNPTEKSNQVSLCGSLEGVERARALVRLSTPLLISFEMPVMGPNKPQPDHETPYIKMIETKFNVQVIFSTRPKLHTSLVLVKGSEKESAQVRDATQLLINFACESIASQILVNVQMEISPQHHEIVKGKNNVNLLSIMERTQTKIIFPDLSDMNVKPLKKSQVTISGRIDDVYLARQQLLGNLPVALIFDFPDNHNDASEIMSLNTKYGVYITLRQKQRQSTLAIVVKGVEKFIDKIYEARQEILRLATPFVKPEIPDYYFMPKDKDLNLAYRTQLTALLAGYVDSPKTPSLLPPSLAGQLTPYANNNHLLLNANGLATPTGVCAPTQKYMQLHNSFQQAQNRSMVAGGQSNNGNYLQVPGAVAPPLKPPTVSPRNSCSQNTSGYQSFSSSTTSLEQSYPPYAQLPGTVSSTSSSTAGSQNRAHYSPDSTYGSEGGGVGGGGGGGARLGRRLSDGVLLGLSNSNGGGGNSGGAHLLPGSAESYRSLHYDLGGNKHSGHRAFDFDMKRALGYKAMERTPVAGELRTPTTAWMGMGLSSTSPAPAPLENGENGAAGGGASSGWRLPPGLGSPYGLSATTGLLDATPVNRRMQLAKHKDIQTLLTSLGLEHYIKIFVLNEIDLEVFTTLTEENLMELGIAAFGARKKLLTAIHTLLANEAACSTMPSSSSSQNSSSPRFSGSAAPGAERRPSNQW
With B1, the binding entry in assay [1] is “binds”.

B2: Hfp (tagged, expressed in HEK293 cells) (protein, UniProt Q8T6B9 1-637)
chain: MGSNDRASRSPRSDDQREISDMPATKRTRSDSGKSTDSKIPYLSQPLYDLKQTGDVKFGPGTRSALLGLLGGALPKLSSEQHDLVSKAKKYAMEQSIKMVLMKQTLAHQQQQLATQRTQVQRQQALALMCRVYVGSISFELKEDTIRVAFTPFGPIKSINMSWDPITQKHKGFAFVEYEIPEGAQLALEQMNGALMGGRNIKVGRPSNMPQAQQVIDEVQEEAKSFNRIYVASIHPDLSEEDIKSVFEAFGPILYCKLAQGTSLHTHKGYGFIEYANKQAMDEAIASMNLFDLGGQLLRVGRSITPPNALACPTTNSTMPTAAAVAAAAATAKIQALDAVASNAVLGLSQNTPVMAAGAVVTKVGAMPVVSAATSAAALHPALAQAAPALLPPGIFQAPTPVAPSLLGVPAGLQPLQAVVPTLPPPALLATPTLPMTVGGVGVGLVPTVATLAGAEASKGAAAAAALSAAANNAAVTAANLSENIKKAHEKQQEELQKKLMDEGDVQTLQQQENMSIKGQSARQLVMQRLMRPVDSRVIILRNMVGPEDVDETLQEEIQEECSKFGTVSRVIIFNEKQTENEDDDEAEIIVKIFVEFSAGAEAMRGKEALDGRFFGGRRVVAELYDQGIFDQGDLSG
Take B2: the binding result in assay [2] and in assay [3] was “binds” in each case.

B3: Loqs (tagged, expressed in HEK293 cells) (protein, UniProt Q9VJY9 1-465)
chain: MDQENFHGSSLPQQLQNLHIQPQQASPNPVQTGFAPRRHYNNLVGLGNGNAVSGSPVKGAPLGQRHVKLKKEKISAQVAQLSQPGQLQLSDVGDPALAGGSGLQGGVGLMGVILPSDEALKFVSETDANGLAMKTPVSILQELLSRRGITPGYELVQIEGAIHEPTFRFRVSFKDKDTPFTAMGAGRSKKEAKHAAARALIDKLIGAQLPESPSSSAGPSVTGLTVAGSGGDGNANATGGGDASDKTVGNPIGWLQEMCMQRRWPPPSYETETEVGLPHERLFTIACSILNYREMGKGKSKKIAKRLAAHRMWMRLQETPIDSGKISDSICGELEGEPRSSENYYGELKDISVPTLTTQHSNKVSQFHKTLKNATGKKLLKLQKTCLKNNKIDYIKLLGEIATENQFEVTYVDIEEKTFSGQFQCLVQLSTLPVGVCHGSGPTAADAQRHAAQNALEYLKIMTKK
Consider B3, for which, in assay [2], the binding result is listed as “binds”.
